Construct, isoform or probe ends are uncertain for at least one entry. A weaker result is weaker than the reference pair of the same experiment. At least one verdict rests on a figure or table, not on a statement of the authors.

The series has as its target T1, HU alpha (Escherichia coli) (UniProt P0ACF0).
T1 sequence: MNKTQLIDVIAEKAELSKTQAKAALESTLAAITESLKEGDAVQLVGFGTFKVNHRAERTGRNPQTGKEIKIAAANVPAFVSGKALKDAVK
Kind of series: EMSA. Particulars: 20 mM Tris-HCl pH 8.0, 7% glycerol, 40 mM NaCl (dsDNA length series, 200 nM DNA, gel 50 mM Tris-borate) or 150 mM NaCl, recombinant protein, protein details: N-terminal 6xHisTEV removed by TEV protease. Background: Mobility shift assays separate free from complexed probe on a gel.

With “AGTCTAGAGTGCAGTTGAGTCCT (double strand) [D23 dsDNA]”, where the note is “40 mM NaCl, label: 5'-HEX”, the binding result was “binds”.

On to “AGTCTAGAGTGCAGTTGAGTCCTTG (double strand) [D25 dsDNA]”, for which the binding result (40 mM NaCl, label: 5'-HEX) is on record as “binds”.

For “AGTCTAGAGTGCAGTTGAGTCCTTGCT (double strand) [D27 dsDNA]”, where the note is “40 mM NaCl, label: 5'-HEX”, the binding result is given as “binds”.

As to “AGTCTAGAGTGCAGTTGAGTCCTTGCTACGACG (double strand) [D33 dsDNA]”, for the setting “40 mM NaCl, label: 5'-HEX”, the binding result is reported as “binds”.

Take “AGTCTAGAGTGCAGTTGAGTCCTTGCTACGACGGATCCCTTAGGTCAG (double strand) [D48 dsDNA (ds)]”: the binding result (150 mM NaCl, smear, label: 5'-HEX on strand 1) is “binds more weakly”.

On to “AGTCTAGAGTGCAGTTGAGTCCTTGCTACGACGGATCCCTTAGGTCAG / CTGACCTAAGGGATCCGTCGTAGCAAGG / ACTCAACTGCACTCTAGACT [nicked DNA (n)]”, for which the binding result (150 mM NaCl, label: 5'-HEX on strand 1, folded or branched DNA) is “binds”.

“GTCTAGAGTGCAGTTGAGTCCTTGCTACGA (double strand) [D31 dsDNA]”: where the note is “40 mM NaCl, label: 5'-HEX”, the binding result is reported as “binds”.
